Source: patent publication US11890286B2, “Methods and compositions for treating cancer” (THE UNIVERSITY OF CHICAGO, priority 2018, dated 2024)
For some assays here: At least one compound was matched to its structure with a doubt left. Some of these results come from one statement about several compounds together.

Columns and labels:
[1] = system: BM1 cells (BM1-NucLight Red); test: High-throughput chemotactic invasion assay of nuclear-labeled BM1 cells; type: cell-based, human; conditions: single drug
Description: High-throughput chemotactic invasion assays: For testing anti-invasive drug combinations, IncuCyte® ClearView 96-Well Chemotaxis plates (Essen BioScience) were used. 2000 cells per well were embedded in 2 mg/ml BME and plated onto the chemotaxis plate following the manufacturer's instructions. Media containing 2% FBS was used in both top and bottom chambers to maintain cell viability over 72 hours or more. 200 ng/ml human EGF (Bio-Techne, 236-EG-01M) was used as the chemotactic agent in the bottom chamber, and the control wells only had the vehicle for the chemotactic agent.
This assay is more accurate when nuclear-labeled cells are used. Therefore, BM1-mKate2 (nuclear red) cells were generated using IncuCyte® NucLight Red Lentivirus Reagent (Essen BioScience, Cat. No. 4478) following the manufacturer's instructions. […]
The chemotaxis module in IncuCyte® can accurately count the number of cell in the top chamber and the bottom chamber of the ClearView plates separately. Invasive capability of the cells in the presence of various small molecule inhibitors was measured as the percentage of cells that moved to the bottom chamber over the period of 72 hours. […] The total number of cells in the top and bottom chambers is used as a readout of proliferation, which was important for determining drug combinations that blocked invasion without affecting growth properties of the cells.

p38 = test: Signaling study in vitro, immunoblot of p38 phosphorylation in TNBC cell lines; type: cell-based, human and mouse
Description: (§1) Signaling studies in vitro: In order to investigate the changes in stress kinase signaling upon stress in the presence of RKIP, or small molecule inhibitors of the MAPKs, cells were plated at sub-confluence. Once they reached roughly 70% confluence, they were starved overnight (16-24 hours) in serum-free media, and then induced with either anisomycin (Sigma-Aldrich, Cat. No. A9789) at 25 ng/ml or 100 ng/ml final concentration, or by 10% serum for 30 minutes to activate MAPK pathways. In studies with small molecule inhibitors of the MAPK pathway, all inhibitors were re-suspended in DMSO and used at indicated concentrations. The cells were pre-treated with the inhibitors in serum-free media for 30 minutes after overnight starvation, immediately before induction with anisomycin or serum for 30 minutes. In this case, the inducing agent was directly added to the pre-treatment media that already had the inhibitors, or the pre-treatment media was replaced by fresh media containing the inducer and the inhibitors. This was to ensure the inhibitors were present during induction of the MAPK pathways. Upon induction for 30 minutes, the cells were washed three time with cold PBS and immediately lysed in RIPA buffer for protein collection.
Protein isolation and western blots: Cultured cells were washed with cold PBS and lysed in RIPA buffer with protease inhibitors (Millipore Sigma, Cat. No. 539134) and phosphatase inhibitors (GoldBio, Cat. No. GB-450). Tumor samples were snap-frozen in liquid nitrogen, pulverized, and lysed in RKIP buffer with protease and phosphatase inhibitors. All samples were sonicated 3×10 seconds at 35% power and centrifuged at max speed for 15 minutes at 4° C. Supernatant was collected and the protein concentration measured using the Bradford assay. All samples were boiled in 6×Laemmli buffer immediately after protein concentration measurement.
For western blots, equal amounts of protein, ranging from 10 μg to 50 μg, across all samples were used. […]

orthotopic LMB tumors = test: Primary orthotopic LMB tumor growth in syngeneic mice; type: in vivo, mouse; conditions: single inhibitor
Description: For primary tumor growth experiments, 2×10^6 BM1 cells, 5×10^5 LMB cells, or 1×10^6 […] cells were injected orthotopically near the mammary fat pad of athymic nude, C57B1/6, or C3-1-TAg-REAR mice, respectively. Tumor growth was monitored over time by caliper measurements of the width and length of tumors. Tumor volumes were calculated with the formula: For the in vivo studies involving MAPK inhibitors and the 4-drug MAPKi combination treatment, small molecule inhibitors were resuspended under sterile conditions. […] No. 91893)+50% saline. JNK inhibitor SP600125 and MEK inhibitor Trametinib were diluted in corn oil (Sigma, Cat. No. C8267). For the 4-drug combinatorial treatment, all inhibitors were dissolved in their own solvent at 4×higher concentration then the desired final concentration. Then, SB203580 and URMC-099 were mixed at a 1:1 ratio, reducing the concentration for each drug down to 2×. Similarly, SP600125 and Trametinib were mixed at a 1:1 ratio. These dual combination solutions were then filtered through 0.22 μm PES filter syringes to assure sterility. Each mouse received 50 μl of each dual combination on the same day, resulting in a total of 100 μl of drug mix (2 injections per mouse) with each drug at their desired 1×final concentration. […] All injections were intraperitoneal. […] Tumor size was monitored twice a week with a caliper. […]

JNK = test: Signaling study in vitro, immunoblot of JNK phosphorylation in TNBC cell lines; type: cell-based, human and mouse
Description: as §1, with “This was to ensure the inhibitors were present during induction of the MAPK pathways. Upon induction for 30 minutes, the cells were washed three time with cold PBS and immediately lysed in RIPA buffer for protein collection.” left out
Protein isolation and western blots: Cultured cells were washed with cold PBS and lysed in RIPA buffer with protease inhibitors (Millipore Sigma, Cat. No. 539134) and phosphatase inhibitors (GoldBio, Cat. No. GB-450). […] Supernatant was collected and the protein concentration measured using the Bradford assay. […]

[2] = four human and mouse TNBC cell lines, anisomycin induction

## O=C(O)c1ccc2c(c1)nc(Nc1cccc(Cl)c1)c1ccncc12 [CX-4945]
[1]
  doses that blocked invasion: ≥ 10 µM

## Oc1c2ccccc2c2c3c(cccc13)N=N2 [SP600125, 1,9-Pyrazoloanthrone]
p38; serum-induced, all four human and mouse TNBC cell lines
  p38 activation upon JNK inhibition (crosstalk): induced p38 activation
Orthotopic LMB tumors; syngeneic model, 10 mg/kg/day or lower
  primary LMB tumor growth determined by final tumor weight: do not affect primary LMB tumor growth

## CC(=O)Nc1cccc(-n2c(=O)n(C3CC3)c(=O)c3c(Nc4ccc(I)cc4F)n(C)c(=O)c(C)c32)c1 [Trametinib]
p38; [2]
  p38 phosphorylation: not consistently inhibited
p38; serum-induced cells
  p38 phosphorylation: no significant change
JNK; [2]
  JNK phosphorylation: partially attenuated
JNK; serum-induced cells
  attenuation of JNK phosphorylation: variable
Orthotopic LMB tumors; dose-response
  primary LMB tumor growth: decreases tumor growth in a dose-dependent manner
